From the supplement of paper PMC10849652
The list shows a part of the results.

Protein sequences, listed by entry. Tags and fused reporters are not part of them. Lines headed by an entry give the natural chain unless they say otherwise; changes in a name come on top.
UniProt Q86X29: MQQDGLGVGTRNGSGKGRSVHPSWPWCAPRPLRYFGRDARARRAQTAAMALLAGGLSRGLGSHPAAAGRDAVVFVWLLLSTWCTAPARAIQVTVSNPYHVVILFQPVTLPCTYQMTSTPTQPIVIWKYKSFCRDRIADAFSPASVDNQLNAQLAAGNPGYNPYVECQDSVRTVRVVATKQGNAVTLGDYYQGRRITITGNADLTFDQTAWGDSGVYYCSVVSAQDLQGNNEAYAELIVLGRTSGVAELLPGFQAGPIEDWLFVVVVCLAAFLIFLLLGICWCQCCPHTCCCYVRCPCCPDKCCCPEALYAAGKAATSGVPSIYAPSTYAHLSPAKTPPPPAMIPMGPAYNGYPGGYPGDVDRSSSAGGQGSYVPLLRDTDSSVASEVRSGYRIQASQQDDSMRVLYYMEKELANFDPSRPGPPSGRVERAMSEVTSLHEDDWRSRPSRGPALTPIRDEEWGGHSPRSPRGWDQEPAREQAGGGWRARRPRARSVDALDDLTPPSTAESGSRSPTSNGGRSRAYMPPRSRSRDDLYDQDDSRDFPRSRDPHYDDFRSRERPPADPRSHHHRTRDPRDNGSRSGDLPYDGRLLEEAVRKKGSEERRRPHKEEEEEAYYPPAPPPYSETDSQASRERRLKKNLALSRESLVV
UniProt P46734: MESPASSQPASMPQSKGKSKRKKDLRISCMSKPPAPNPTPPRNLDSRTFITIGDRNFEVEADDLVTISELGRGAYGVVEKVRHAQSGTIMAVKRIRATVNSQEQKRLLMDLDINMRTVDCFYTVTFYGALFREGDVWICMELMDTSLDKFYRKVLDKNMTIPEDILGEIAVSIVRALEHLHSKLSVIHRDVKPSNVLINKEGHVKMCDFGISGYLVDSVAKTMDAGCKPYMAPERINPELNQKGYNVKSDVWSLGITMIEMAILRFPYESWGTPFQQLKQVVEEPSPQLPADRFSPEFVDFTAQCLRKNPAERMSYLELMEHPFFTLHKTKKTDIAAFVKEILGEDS
UniProt Q16539, whole entry, looked up: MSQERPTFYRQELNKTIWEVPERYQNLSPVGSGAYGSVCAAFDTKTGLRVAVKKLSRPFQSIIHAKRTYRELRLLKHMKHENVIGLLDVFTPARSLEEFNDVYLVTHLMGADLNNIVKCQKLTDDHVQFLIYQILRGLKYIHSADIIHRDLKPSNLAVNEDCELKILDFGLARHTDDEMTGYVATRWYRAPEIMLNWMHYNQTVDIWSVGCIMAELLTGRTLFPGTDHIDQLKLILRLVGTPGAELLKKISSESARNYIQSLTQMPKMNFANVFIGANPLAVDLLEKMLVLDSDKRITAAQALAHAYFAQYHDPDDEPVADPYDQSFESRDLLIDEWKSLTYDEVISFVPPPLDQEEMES
UniProt P51884: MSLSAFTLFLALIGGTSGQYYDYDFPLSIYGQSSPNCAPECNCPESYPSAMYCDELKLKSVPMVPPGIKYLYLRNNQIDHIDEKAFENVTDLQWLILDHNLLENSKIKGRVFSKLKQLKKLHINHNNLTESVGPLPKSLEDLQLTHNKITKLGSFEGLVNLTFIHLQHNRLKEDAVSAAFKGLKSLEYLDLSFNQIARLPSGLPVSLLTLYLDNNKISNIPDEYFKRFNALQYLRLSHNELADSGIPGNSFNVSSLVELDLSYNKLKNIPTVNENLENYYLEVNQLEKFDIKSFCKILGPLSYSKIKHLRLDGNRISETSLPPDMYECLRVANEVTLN
UniProt Q9Y4K4: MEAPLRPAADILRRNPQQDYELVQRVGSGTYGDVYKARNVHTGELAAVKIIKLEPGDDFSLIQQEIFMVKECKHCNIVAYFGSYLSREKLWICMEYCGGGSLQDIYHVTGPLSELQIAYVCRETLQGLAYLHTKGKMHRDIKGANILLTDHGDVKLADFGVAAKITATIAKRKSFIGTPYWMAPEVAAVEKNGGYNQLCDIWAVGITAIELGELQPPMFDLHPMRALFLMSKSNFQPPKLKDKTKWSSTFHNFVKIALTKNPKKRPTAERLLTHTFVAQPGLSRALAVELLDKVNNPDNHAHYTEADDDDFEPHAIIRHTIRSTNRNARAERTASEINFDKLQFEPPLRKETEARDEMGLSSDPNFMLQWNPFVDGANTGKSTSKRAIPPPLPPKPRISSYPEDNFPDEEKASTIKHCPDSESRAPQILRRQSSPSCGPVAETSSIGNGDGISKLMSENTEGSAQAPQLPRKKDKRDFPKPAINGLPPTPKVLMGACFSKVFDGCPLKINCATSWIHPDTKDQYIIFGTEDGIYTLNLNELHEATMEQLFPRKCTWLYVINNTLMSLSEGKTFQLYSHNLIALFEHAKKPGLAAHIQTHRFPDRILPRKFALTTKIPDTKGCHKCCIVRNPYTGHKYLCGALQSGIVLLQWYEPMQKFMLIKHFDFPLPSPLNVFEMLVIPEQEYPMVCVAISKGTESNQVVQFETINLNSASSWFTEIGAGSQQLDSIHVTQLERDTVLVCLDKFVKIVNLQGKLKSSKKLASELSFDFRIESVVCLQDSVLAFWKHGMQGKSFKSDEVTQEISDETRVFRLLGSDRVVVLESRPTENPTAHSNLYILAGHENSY
UniProt Q9Y2U5: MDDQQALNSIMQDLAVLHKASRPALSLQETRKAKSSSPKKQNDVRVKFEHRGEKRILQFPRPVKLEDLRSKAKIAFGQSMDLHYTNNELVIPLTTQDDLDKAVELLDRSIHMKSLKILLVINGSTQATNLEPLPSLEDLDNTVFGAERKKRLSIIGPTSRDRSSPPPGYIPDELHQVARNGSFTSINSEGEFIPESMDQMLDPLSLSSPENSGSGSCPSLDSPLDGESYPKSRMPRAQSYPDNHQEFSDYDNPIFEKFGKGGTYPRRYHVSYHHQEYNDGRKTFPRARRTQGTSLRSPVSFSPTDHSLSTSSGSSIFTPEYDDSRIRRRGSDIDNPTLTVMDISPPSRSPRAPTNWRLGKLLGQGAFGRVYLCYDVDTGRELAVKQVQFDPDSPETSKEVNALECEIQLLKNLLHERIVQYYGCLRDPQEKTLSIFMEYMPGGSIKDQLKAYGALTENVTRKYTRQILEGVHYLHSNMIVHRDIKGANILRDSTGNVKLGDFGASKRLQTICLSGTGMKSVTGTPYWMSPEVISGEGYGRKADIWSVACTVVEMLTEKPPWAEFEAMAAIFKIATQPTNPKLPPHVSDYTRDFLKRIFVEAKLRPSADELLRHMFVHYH
UniProt Q92585: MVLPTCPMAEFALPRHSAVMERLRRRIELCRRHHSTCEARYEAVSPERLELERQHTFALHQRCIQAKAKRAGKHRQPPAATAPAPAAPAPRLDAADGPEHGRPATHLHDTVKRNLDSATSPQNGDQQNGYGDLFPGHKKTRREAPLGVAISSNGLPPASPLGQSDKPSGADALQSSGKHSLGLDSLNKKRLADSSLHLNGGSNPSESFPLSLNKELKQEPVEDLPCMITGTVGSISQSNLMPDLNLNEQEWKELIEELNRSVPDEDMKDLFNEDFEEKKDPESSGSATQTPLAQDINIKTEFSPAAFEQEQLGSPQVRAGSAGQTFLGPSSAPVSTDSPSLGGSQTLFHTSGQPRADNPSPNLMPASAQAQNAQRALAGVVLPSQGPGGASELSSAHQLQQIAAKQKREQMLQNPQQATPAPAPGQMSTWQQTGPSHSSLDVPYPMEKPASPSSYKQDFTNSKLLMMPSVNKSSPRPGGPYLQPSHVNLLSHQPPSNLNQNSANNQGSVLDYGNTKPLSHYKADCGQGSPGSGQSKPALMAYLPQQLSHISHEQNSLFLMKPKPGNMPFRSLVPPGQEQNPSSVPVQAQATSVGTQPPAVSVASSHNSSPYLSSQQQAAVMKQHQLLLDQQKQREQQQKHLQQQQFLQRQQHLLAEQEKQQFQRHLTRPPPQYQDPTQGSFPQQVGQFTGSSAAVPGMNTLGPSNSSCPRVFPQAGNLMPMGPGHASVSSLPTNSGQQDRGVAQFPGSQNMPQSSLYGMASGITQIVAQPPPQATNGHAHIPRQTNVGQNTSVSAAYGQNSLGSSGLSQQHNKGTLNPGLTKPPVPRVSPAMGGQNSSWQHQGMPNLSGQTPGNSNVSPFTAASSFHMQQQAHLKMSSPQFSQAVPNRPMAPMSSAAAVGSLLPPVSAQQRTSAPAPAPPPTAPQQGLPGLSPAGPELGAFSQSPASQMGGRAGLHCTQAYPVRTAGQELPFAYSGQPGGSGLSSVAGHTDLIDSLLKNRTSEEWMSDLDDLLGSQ
UniProt O95819: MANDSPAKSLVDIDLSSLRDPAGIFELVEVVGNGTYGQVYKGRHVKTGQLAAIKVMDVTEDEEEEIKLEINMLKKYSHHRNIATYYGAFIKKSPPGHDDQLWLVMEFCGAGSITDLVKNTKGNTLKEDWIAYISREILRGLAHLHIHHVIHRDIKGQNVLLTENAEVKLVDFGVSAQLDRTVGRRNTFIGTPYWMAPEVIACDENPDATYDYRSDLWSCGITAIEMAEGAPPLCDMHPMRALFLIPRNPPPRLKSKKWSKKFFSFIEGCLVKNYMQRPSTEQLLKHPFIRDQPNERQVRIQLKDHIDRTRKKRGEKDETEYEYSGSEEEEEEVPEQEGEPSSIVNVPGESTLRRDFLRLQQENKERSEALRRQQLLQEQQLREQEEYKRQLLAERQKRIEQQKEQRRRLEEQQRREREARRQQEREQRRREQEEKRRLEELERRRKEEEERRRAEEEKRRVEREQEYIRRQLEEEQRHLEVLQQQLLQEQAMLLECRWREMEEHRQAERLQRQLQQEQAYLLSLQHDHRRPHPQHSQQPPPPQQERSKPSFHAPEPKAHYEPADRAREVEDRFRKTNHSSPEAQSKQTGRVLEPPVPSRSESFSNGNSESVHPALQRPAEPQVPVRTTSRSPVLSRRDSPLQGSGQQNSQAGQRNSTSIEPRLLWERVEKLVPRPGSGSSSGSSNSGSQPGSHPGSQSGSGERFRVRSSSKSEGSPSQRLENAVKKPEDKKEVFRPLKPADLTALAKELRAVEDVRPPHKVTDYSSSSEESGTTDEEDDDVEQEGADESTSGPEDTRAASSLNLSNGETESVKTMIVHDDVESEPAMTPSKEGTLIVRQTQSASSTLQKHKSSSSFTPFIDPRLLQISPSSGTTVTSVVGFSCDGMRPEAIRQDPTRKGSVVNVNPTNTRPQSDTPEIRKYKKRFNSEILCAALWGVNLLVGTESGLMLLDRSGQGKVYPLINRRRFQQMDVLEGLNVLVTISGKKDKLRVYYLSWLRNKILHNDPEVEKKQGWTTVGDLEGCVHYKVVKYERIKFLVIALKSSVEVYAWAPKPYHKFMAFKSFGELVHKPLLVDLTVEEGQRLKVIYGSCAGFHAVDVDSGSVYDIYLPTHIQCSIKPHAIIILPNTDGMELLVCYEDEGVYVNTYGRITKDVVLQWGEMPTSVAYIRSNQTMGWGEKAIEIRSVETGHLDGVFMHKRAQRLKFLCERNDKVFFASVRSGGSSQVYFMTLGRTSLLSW
UniProt Q6NSJ5: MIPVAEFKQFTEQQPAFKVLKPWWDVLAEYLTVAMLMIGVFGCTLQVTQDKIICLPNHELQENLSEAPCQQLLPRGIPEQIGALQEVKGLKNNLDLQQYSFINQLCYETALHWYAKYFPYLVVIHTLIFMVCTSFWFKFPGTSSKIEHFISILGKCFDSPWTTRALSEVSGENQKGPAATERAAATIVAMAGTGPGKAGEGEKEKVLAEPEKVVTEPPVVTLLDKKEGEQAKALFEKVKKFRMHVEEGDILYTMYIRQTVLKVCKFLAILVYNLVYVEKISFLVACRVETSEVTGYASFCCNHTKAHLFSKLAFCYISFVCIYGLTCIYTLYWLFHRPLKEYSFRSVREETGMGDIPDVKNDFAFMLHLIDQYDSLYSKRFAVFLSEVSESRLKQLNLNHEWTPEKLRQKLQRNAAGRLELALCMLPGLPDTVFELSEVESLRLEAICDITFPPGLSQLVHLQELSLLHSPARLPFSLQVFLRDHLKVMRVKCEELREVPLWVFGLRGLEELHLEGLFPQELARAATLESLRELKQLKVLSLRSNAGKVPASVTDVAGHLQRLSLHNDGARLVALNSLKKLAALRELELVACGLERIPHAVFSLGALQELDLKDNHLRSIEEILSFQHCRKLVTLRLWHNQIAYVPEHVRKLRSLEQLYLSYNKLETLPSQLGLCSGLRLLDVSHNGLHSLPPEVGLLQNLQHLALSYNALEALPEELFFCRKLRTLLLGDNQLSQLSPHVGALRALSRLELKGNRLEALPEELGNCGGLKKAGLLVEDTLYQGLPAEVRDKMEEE

Key:
Experiment in all cases: log2 fold change, soluble protein after heating vs DMSO (PISA); higher = thermal stabilisation; K562 cells, 10 uM, 30 min; active = over 0.2 and 3.5 SD of the protein, either way, in both replicates (recomputed)
[1] = compound: COC1=CC=C(C=C1)CN2C=CC3=C2C=C(C=C3)C(=O)NO
In short: (§1)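 For each measurement, 10 μM compound was applied for 30 min to K562 cells at 2×10^6 cells/mL. Aliquots were heated for 3 min across 48°C-58°C, pooled, and extracted in PBS with 0.5% NP-40 at 4°C; the supernatant after 21,000xg for 90 min was soluble protein. This was quantified by TMTpro 16plex LC-MS/MS with channel sums equalised, and thermal stability was reported relative to control samples from duplicates, on a log2 fold-change scale.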

filanesib = compound: CON(C)C(=O)N1N=C(c2cc(F)ccc2F)S[C@@]1(CCCN)c1ccccc1 [filanesib]
In short: as §1

zotarolimus = compound: CO[C@H]1C[C@@H]2CC[C@@H](C)[C@@](O)(O2)C(=O)C(=O)N2CCCC[C@H]2C(=O)O[C@H]([C@H](C)C[C@@H]2CC[C@H](n3cnnn3)[C@H](OC)C2)CC(=O)[C@H](C)/C=C(\C)[C@@H](O)[C@@H](OC)C(=O)[C@H](C)C[C@H](C)/C=C/C=C/C=C/1C [zotarolimus]
In short: as §1

idasanutlin = compound: COc1cc(C(=O)O)ccc1NC(=O)[C@@H]1N[C@@H](CC(C)(C)C)[C@](C#N)(c2ccc(Cl)cc2F)[C@H]1c1cccc(Cl)c1F [idasanutlin]
In short: as §1

alisertib = compound: COc1cc(Nc2ncc3c(n2)-c2ccc(Cl)cc2C(c2c(F)cccc2OC)=NC3)ccc1C(=O)O [alisertib]
In short: as §1

[2] = compound: COc1cc2nc(-c3cc(F)ccc3O)nc(N[C@@H]3CNC[C@H]3C(C)(C)O)c2cc1OC
In short: as §1

gefitinib = compound: COc1cc2ncnc(Nc3ccc(F)c(Cl)c3)c2cc1OCCCN1CCOCC1 [gefitinib]
In short: as §1

[3] = compound: COc1cccc2cc(-c3nc([C@H]4CC[C@H](C(=O)O)CC4)n4ncnc(N)c34)[nH]c12
In short: as §1

lapatinib = compound: CS(=O)(=O)CCNCc1ccc(-c2ccc3ncnc(Nc4ccc(OCc5cccc(F)c5)c(Cl)c4)c3c2)o1 [lapatinib]
In short: as §1

pictilisib = compound: CS(=O)(=O)N1CCN(Cc2cc3nc(-c4cccc5[nH]ncc45)nc(N4CCOCC4)c3s2)CC1 [pictilisib]
In short: as §1

[4] = compound: CS(=O)(=O)c1ccc(-c2cnc(N)c(C(=O)Nc3ccccc3)n2)cc1
In short: as §1

crizotinib = compound: C[C@@H](Oc1cc(-c2cnn(C3CCNCC3)c2)cnc1N)c1c(Cl)ccc(F)c1Cl [crizotinib]
In short: as §1

[5] = compound: C[C@@H]1COCCN1C2=NC(=NC(=C2)C3(CC3)S(=O)(=O)C)C4=C5C=CNC5=CC=C4
In short: as §1

[6] = compound: C[C@H](C1=CC=C(C=C1)C(=O)NC2=C3C=CNC3=NC=C2)N
In short: as §1

gandotinib = compound: Cc1cc(Nc2cc(CN3CCOCC3)c3nc(C)c(Cc4ccc(Cl)cc4F)n3n2)n[nH]1 [gandotinib]
In short: as §1

[7] = compound: Cc1cc(SCc2sc(-c3ccc(C(F)(F)F)cc3)nc2C)ccc1OCC(=O)O
In short: as §1

doramapimod = compound: Cc1ccc(-n2nc(C(C)(C)C)cc2NC(=O)Nc2ccc(OCCN3CCOCC3)c3ccccc23)cc1 [doramapimod]
In short: as §1

ispinesib = compound: Cc1ccc(C(=O)N(CCCN)[C@@H](c2nc3cc(Cl)ccc3c(=O)n2Cc2ccccc2)C(C)C)cc1 [ispinesib]
In short: as §1

duvelisib = compound: C[C@H](Nc1ncnc2nc[nH]c12)c1cc2cccc(Cl)c2c(=O)n1-c1ccccc1 [duvelisib]
In short: as §1

tozasertib = compound: Cc1cc(Nc2cc(N3CCN(C)CC3)nc(Sc3ccc(NC(=O)C4CC4)cc3)n2)n[nH]1 [tozasertib]
In short: as §1

Target: LSR (UniProt Q86X29)
- log2 fold change [1]: inactive: 0.107
- log2 fold change (filanesib): inactive: 0.116
- log2 fold change (zotarolimus): inactive: -0.011
- log2 fold change (idasanutlin): inactive: -0.022
- log2 fold change (alisertib): inactive: -0.122
- log2 fold change [2]: inactive: 0.027
- log2 fold change (gefitinib): inactive: 0.021
- log2 fold change [3]: inactive: 0.033
- log2 fold change (lapatinib): inactive: -0.056
- log2 fold change (pictilisib): inactive: 0.121
- log2 fold change [4]: inactive: 0.08
- log2 fold change (crizotinib): inactive: 0.043
- log2 fold change [5]: inactive: 0.009
- log2 fold change [6]: inactive: -0.025
- log2 fold change (gandotinib): inactive: -0.012
- log2 fold change [7]: inactive: -0.031
- log2 fold change (doramapimod): inactive: 0.04
- log2 fold change (ispinesib): inactive: 0.027

Target: MAP2K3 isoform 3 (UniProt P46734)
- log2 fold change [1]: inactive: 0.076
- log2 fold change (filanesib): inactive: 0.01
- log2 fold change (zotarolimus): inactive: -0.018
- log2 fold change (idasanutlin): inactive: -0.019
- log2 fold change (alisertib): inactive: 0.152
- log2 fold change [2]: inactive: 0.166
- log2 fold change (gefitinib): inactive: -0.086
- log2 fold change [3]: inactive: -0.022
- log2 fold change (lapatinib): inactive: -0.079
- log2 fold change (pictilisib): inactive: 0.07
- log2 fold change [4]: inactive: 0.054
- log2 fold change (crizotinib): inactive: -0.049
- log2 fold change [5]: inactive: -0.068
- log2 fold change [6]: inactive: 0.043
- log2 fold change (gandotinib): inactive: -0.001
- log2 fold change [7]: inactive: -0.007
- log2 fold change (doramapimod): inactive: 0.012
- log2 fold change (ispinesib): inactive: -0.02

Target: MARK2 (UniProt E9PC69)
- log2 fold change [1]: inactive: -0.028
- log2 fold change (filanesib): inactive: 0.128
- log2 fold change (zotarolimus): inactive: 0.122
- log2 fold change (idasanutlin): inactive: 0.106
- log2 fold change [2]: active: -0.765
- log2 fold change (gefitinib): inactive: -0.025
- log2 fold change (lapatinib): inactive: 0.085
- log2 fold change [4]: inactive: 0.068
- log2 fold change (crizotinib): inactive: -0.323
- log2 fold change [5]: inactive: -0.049
- log2 fold change [6]: inactive: 0.15
- log2 fold change [7]: inactive: 0.12
- log2 fold change (doramapimod): inactive: 0.119
- log2 fold change (ispinesib): inactive: -0.232

Target: MAPK14 (UniProt Q16539)
- log2 fold change [1]: inactive: 0.024
- log2 fold change (filanesib): inactive: -0.055
- log2 fold change (zotarolimus): inactive: 0.059
- log2 fold change (idasanutlin): inactive: -0.361
- log2 fold change (alisertib): inactive: -0.014
- log2 fold change [2]: inactive: 0.014
- log2 fold change (gefitinib): active: 0.796
- log2 fold change [3]: inactive: 0.303
- log2 fold change (lapatinib): inactive: -0.002
- log2 fold change (pictilisib): inactive: -0.05
- log2 fold change [4]: inactive: 0.023
- log2 fold change (crizotinib): inactive: -0.062
- log2 fold change [6]: inactive: 0.018
- log2 fold change (gandotinib): inactive: -0.099
- log2 fold change [7]: inactive: 0.015
- log2 fold change (ispinesib): inactive: -0.069

Target: LUM (UniProt P51884)
- log2 fold change [1]: inactive: -0.151
- log2 fold change (filanesib): inactive: 0.169
- log2 fold change (zotarolimus): inactive: 0
- log2 fold change (idasanutlin): inactive: -0.023
- log2 fold change [2]: inactive: -0.216
- log2 fold change (gefitinib): inactive: 0.087
- log2 fold change (lapatinib): inactive: 0.067
- log2 fold change [4]: inactive: -0.011
- log2 fold change (crizotinib): inactive: 0.352
- log2 fold change [5]: inactive: -0.146
- log2 fold change [6]: inactive: 0.217
- log2 fold change [7]: inactive: -0.135
- log2 fold change (doramapimod): inactive: 0.168
- log2 fold change (ispinesib): inactive: -0.007

Target: MAP4K5 (UniProt Q9Y4K4)
- log2 fold change [1]: inactive: 0.01
- log2 fold change (filanesib): inactive: -0.083
- log2 fold change (zotarolimus): inactive: 0.021
- log2 fold change (idasanutlin): inactive: 0.067
- log2 fold change (alisertib): inactive: 0.134
- log2 fold change [2]: inactive: 0.224
- log2 fold change (gefitinib): inactive: -0.011
- log2 fold change [3]: inactive: 0.011
- log2 fold change (lapatinib): inactive: 0.15
- log2 fold change (pictilisib): inactive: 0.012
- log2 fold change [4]: inactive: 0.019
- log2 fold change [5]: inactive: 0.072
- log2 fold change [6]: inactive: 0.24
- log2 fold change (gandotinib): inactive: -0.067
- log2 fold change (doramapimod): inactive: -0.064
- log2 fold change (ispinesib): inactive: -0.045

Target: MAP3K2 (UniProt Q9Y2U5)
- log2 fold change [1]: inactive: 0.065
- log2 fold change (filanesib): inactive: 0.036
- log2 fold change (zotarolimus): inactive: 0.124
- log2 fold change (idasanutlin): inactive: -0.224
- log2 fold change (alisertib): inactive: 0.042
- log2 fold change [2]: inactive: 0.006
- log2 fold change [3]: inactive: -0.375
- log2 fold change (lapatinib): inactive: -0.029
- log2 fold change (pictilisib): inactive: -0.124
- log2 fold change [4]: inactive: 0.042
- log2 fold change (crizotinib): inactive: -0.155
- log2 fold change [5]: inactive: -0.043
- log2 fold change [6]: inactive: -0.106
- log2 fold change (duvelisib): inactive: 0.057
- log2 fold change (gandotinib): inactive: -0.144
- log2 fold change (tozasertib): inactive: -0.379
- log2 fold change [7]: inactive: 0.034
- log2 fold change (doramapimod): inactive: -0.012
- log2 fold change (ispinesib): inactive: -0.076

Target: MAML1 (UniProt Q92585)
- log2 fold change [1]: inactive: -0.065
- log2 fold change (filanesib): inactive: 0.152
- log2 fold change (zotarolimus): inactive: -0.065
- log2 fold change [4]: inactive: -0.022
- log2 fold change (crizotinib): inactive: 0.074
- log2 fold change [5]: inactive: 0.053
- log2 fold change [6]: inactive: -0.056
- log2 fold change (doramapimod): inactive: -0.038
- log2 fold change (ispinesib): inactive: -0.006

Target: MAP4K4 isoform 3 (UniProt O95819)
- log2 fold change [1]: inactive: -0.021
- log2 fold change (filanesib): inactive: 0.032
- log2 fold change (zotarolimus): inactive: 0.021
- log2 fold change (idasanutlin): inactive: 0.093
- log2 fold change [2]: inactive: -0.05
- log2 fold change (gefitinib): inactive: 0.01
- log2 fold change [3]: inactive: 0.02
- log2 fold change (lapatinib): inactive: -0.021
- log2 fold change (pictilisib): inactive: -0.153
- log2 fold change [4]: inactive: -0.058
- log2 fold change [5]: inactive: 0.002
- log2 fold change [6]: inactive: -0.055
- log2 fold change (gandotinib): inactive: 0.311
- log2 fold change [7]: inactive: 0.017
- log2 fold change (doramapimod): inactive: -0.156
- log2 fold change (ispinesib): inactive: -0.05

Target: LRRC8E (UniProt Q6NSJ5)
- log2 fold change [1]: inactive: -0.028
- log2 fold change (filanesib): inactive: 0.221
- log2 fold change (zotarolimus): inactive: -0.058
- log2 fold change (alisertib): inactive: -0.065
- log2 fold change [2]: inactive: -0.066
- log2 fold change [3]: inactive: -0.01
- log2 fold change (lapatinib): inactive: 0.052
- log2 fold change (pictilisib): inactive: 0.117
- log2 fold change [4]: inactive: 0.063
- log2 fold change (crizotinib): inactive: -0.023
- log2 fold change [5]: inactive: 0.017
- log2 fold change [6]: inactive: 0.104
- log2 fold change (duvelisib): inactive: 0.219
- log2 fold change (gandotinib): inactive: -0.047
- log2 fold change (tozasertib): inactive: -0.075
- log2 fold change [7]: inactive: -0.066
- log2 fold change (doramapimod): inactive: 0.012
- log2 fold change (ispinesib): inactive: -0.053

Target: LYZ (UniProt P61626)
- log2 fold change [1]: inactive: 0.592
- log2 fold change (filanesib): inactive: 0.034
- log2 fold change (zotarolimus): inactive: 0.059
- log2 fold change (idasanutlin): inactive: 0.27
- log2 fold change (alisertib): inactive: -0.003
- log2 fold change [2]: inactive: -0.133
- log2 fold change (gefitinib): inactive: 0.306
- log2 fold change [3]: inactive: 0.103
- log2 fold change (lapatinib): inactive: 0.207
- log2 fold change [4]: inactive: 0.051
- log2 fold change (crizotinib): inactive: 0.343
- log2 fold change [5]: inactive: -0.036
- log2 fold change [6]: inactive: -0.103
- log2 fold change (duvelisib): inactive: -0.107
- log2 fold change (tozasertib): inactive: -0.018
- log2 fold change [7]: inactive: -0.226
- log2 fold change (doramapimod): inactive: 0.091
- log2 fold change (ispinesib): inactive: 0.602
